Laboratory results from patent US8461328B2, “Tricyclic heterocyclic compounds, compositions and methods of use thereof” (Genentech, Inc., priority 2010, dated 2013).
Some results were stated once for a whole list of compounds, not compound by compound.

Chains of the proteins cited; added tags and fusions are not shown. Residues count along the entry.
UniProt P23458, 852-1154: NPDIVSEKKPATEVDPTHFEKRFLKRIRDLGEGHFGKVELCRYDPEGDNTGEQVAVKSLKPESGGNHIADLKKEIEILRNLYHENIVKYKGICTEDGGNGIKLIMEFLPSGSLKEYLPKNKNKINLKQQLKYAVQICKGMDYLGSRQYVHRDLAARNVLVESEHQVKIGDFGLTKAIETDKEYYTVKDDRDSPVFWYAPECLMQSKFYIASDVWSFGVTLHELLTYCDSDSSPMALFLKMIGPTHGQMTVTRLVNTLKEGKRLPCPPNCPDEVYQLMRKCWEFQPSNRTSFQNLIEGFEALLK

Molecular target: T1, human JAK1 kinase domain (Homo sapiens, UniProt P23458)
T1 construct: made in house; host or cells: SF9 insect cells (baculovirus)
Experiment: JAK1 inhibition assay (Example B), Caliper LabChip peptide phosphorylation
Format: biochemical
Conditions: 1.5 nM JAK1, 25 μM ATP, Morrison tight binding model; read-out: Ki in a JAK1 kinase activity assay (Example B)

| Compound | Ki [nM] |
| --- | --- |
| CCn1cc(CN2CCC(n3c([C@@H](C)O)nc4cnc5[nH]ccc5c43)CC2)c(C)n1 [Example 829, (R)-1-{1-[1-(1-Ethyl-3-methyl-1H-pyrazol-4-ylmethyl)-piperidin-4-yl]-1,6-dihydro-1,3,5,6-tetraaza-as-indacen-2-yl}-ethanol] | < 500 |
| Cc1ncc(CN2CCC(n3c([C@@H](C)O)nc4cnc5[nH]ccc5c43)CC2)n1C [Example 830, (R)-1-{1-[1-(2,3-Dimethyl-3H-imidazol-4-ylmethyl)-piperidin-4-yl]-1,6-dihydro-1,3,5,6-tetraaza-as-indacen-2-yl}-ethanol] | < 500 |
| Cc1nn(C)c(C)c1CN1CCC(n2c([C@@H](C)O)nc3cnc4[nH]ccc4c32)CC1 [Example 831, (R)-1-{1-[1-(1,3,5-Trimethyl-1H-pyrazol-4-ylmethyl)-piperidin-4-yl]-1,6-dihydro-1,3,5,6-tetraaza-as-indacen-2-yl}-ethanol] | < 500 |
| C[C@@H](O)c1nc2cnc3[nH]ccc3c2n1C1CCN(C2COC2)CC1 [Example 832, (R)-1-[1-(1-Oxetan-3-yl-piperidin-4-yl)-1,6-dihydro-1,3,5,6-tetraaza-as-indacen-2-yl]-ethanol] | < 500 |
| CC(C)(C)NCCOCc1nc2cnc3[nH]ccc3c2n1C1CCN(CCC#N)CC1 [Example 833, 3-{4-[2-(2-tert-Butylamino-ethoxymethyl)-6H-1,3,5,6-tetraaza-as-indacen-1-yl]-piperidin-1-yl}-propionitrile] | < 500 |
| N#CCCN1CCC(n2c(COCC(F)(F)F)nc3cnc4[nH]ccc4c32)CC1 [Example 834, 3-{4-[2-(2,2,2-Trifluoro-ethoxymethyl)-6H-1,3,5,6-tetraaza-as-indacen-1-yl]-piperidin-1-yl}-propionitrile] | < 500 |
| N#CCCN1CCC(n2c(COCc3ccc(F)c(F)c3)nc3cnc4[nH]ccc4c32)CC1 [Example 835, 3-{4-[2-(3,4-Difluoro-benzyloxymethyl)-6H-1,3,5,6-tetraaza-as-indacen-1-yl]-piperidin-1-yl}-propionitrile] | < 500 |
| N#CCCN1CCC(n2c(COCC3CCOC3)nc3cnc4[nH]ccc4c32)CC1 (stereo not drawn) [Example 836, 3-{4-[2-(Tetrahydro-furan-3-ylmethoxymethyl)-6H-1,3,5,6-tetraaza-as-indacen-1-yl]-piperidin-1-yl}-propionitrile] | < 500 |
| N#CCCN1CCC(n2c(COC3CCOCC3)nc3cnc4[nH]ccc4c32)CC1 [Example 837, 3-{4-[2-(Tetrahydro-pyran-4-yloxymethyl)-6H-1,3,5,6-tetraaza-as-indacen-1-yl]-piperidin-1-yl}-propionitrile] | < 500 |
| N#CCCN1CCC(n2c(COCC3CCCC3)nc3cnc4[nH]ccc4c32)CC1 [Example 838, 3-[4-(2-Cyclopentylmethoxymethyl-6H-1,3,5,6-tetraaza-as-indacen-1-yl)-piperidin-1-yl]-propionitrile] | < 500 |
| N#CCCN1CCC(n2c(COCC3CC3)nc3cnc4[nH]ccc4c32)CC1 [Example 839, 3-[4-(2-Cyclopropylmethoxymethyl-6H-1,3,5,6-tetraaza-as-indacen-1-yl)-piperidin-1-yl]-propionitrile] | < 500 |
| N#CCCN1CCC(n2c(COCC3CCC3)nc3cnc4[nH]ccc4c32)CC1 [Example 840, 3-[4-(2-Cyclobutylmethoxymethyl-6H-1,3,5,6-tetraaza-as-indacen-1-yl)-piperidin-1-yl]-propionitrile] | < 500 |
| CC1CC1COCc1nc2cnc3[nH]ccc3c2n1C1CCN(CCC#N)CC1 (stereo not drawn) [Example 841, 3-{4-[2-(2-Methyl-cyclopropylmethoxymethyl)-6H-1,3,5,6-tetraaza-as-indacen-1-yl]-piperidin-1-yl}-propionitrile] | < 500 |
| CC(C)OCc1nc2cnc3[nH]ccc3c2n1C1CCN(CCC#N)CC1 [Example 842, 3-[4-(2-Isopropoxymethyl-6H-1,3,5,6-tetraaza-as-indacen-1-yl)-piperidin-1-yl]-propionitrile] | < 500 |
| CC(C)OCCOCc1nc2cnc3[nH]ccc3c2n1C1CCN(CCC#N)CC1 [Example 843, 3-{4-[2-(2-Isopropoxy-ethoxymethyl)-6H-1,3,5,6-tetraaza-as-indacen-1-yl]-piperidin-1-yl}-propionitrile] | < 500 |
| N#CCCN1CCC(n2c(COC3CCCC3)nc3cnc4[nH]ccc4c32)CC1 [Example 844, 3-[4-(2-Cyclopentyloxymethyl-6H-1,3,5,6-tetraaza-as-indacen-1-yl)-piperidin-1-yl]-propionitrile] | < 500 |
| Cc1nc2cnc3[nH]ccc3c2n1C1CC2CCC1O2 (stereo not drawn) [Example 845, exo-2-Methyl-1-(7-oxa-bicyclo[2.2.1]hept-2-yl)-1,6-dihydro-1,3,5,6-tetraaza-as-indacene] | < 500 |
| CC(O)c1nc2cnc3[nH]ccc3c2n1C1CC2CCC1O2 (stereo not drawn) [Example 848, endo-1-[1-(7-Oxa-bicyclo[2.2.1]hept-2-yl)-1,6-dihydro-1,3,5,6-tetraaza-as-indacen-2-yl]-ethanol] | < 500 |
| CS(=O)(=O)NCCc1nc2cnc3[nH]ccc3c2n1[C@H]1CCCOC1 [Example 854, (S)—N-{2-[1-(Tetrahydro-pyran-3-yl)-1,6-dihydro-1,3,5,6-tetraaza-as-indacen-2-yl]-ethyl}-methanesulfonamide] | < 500 |
| CC(=O)NCCc1nc2cnc3[nH]ccc3c2n1[C@H]1CCCOC1 [Example 856, (S)—N-{2-[1-(Tetrahydro-pyran-3-yl)-1,6-dihydro-1,3,5,6-tetraaza-as-indacen-2-yl]-ethyl}-acetamide] | < 500 |
| O=C(NCCc1nc2cnc3[nH]ccc3c2n1[C@H]1CCCOC1)C1CC1 [Example 857, (S)-Cyclopropanecarboxylic acid {2-[1-(tetrahydro-pyran-3-yl)-1,6-dihydro-1,3,5,6-tetraaza-as-indacen-2-yl]-ethyl}-amide] | < 500 |
| OC[C@H](O)c1nc2cnc3[nH]ccc3c2n1C1CCCCC1 [Example 858, (R)-1-(1-Cyclohexyl-1,6-dihydro-1,3,5,6-tetraaza-as-indacen-2-yl)-ethane-1,2-diol] | < 500 |
| OCCc1nc2cnc3[nH]ccc3c2n1[C@H]1CCCOC1 [Example 859, (S)-2-[1-(Tetrahydro-pyran-3-yl)-1,6-dihydro-1,3,5,6-tetraaza-as-indacen-2-yl]-ethanol] | < 500 |
| C[C@@H](O)c1nc2cnc3[nH]ccc3c2n1C1CCN(C2(CC#N)COC2)CC1 [Example 861, (3-{4-[2-((R)-1-Hydroxy-ethyl)-6H-1,3,5,6-tetraaza-as-indacen-1-yl]-piperidin-1-yl}-oxetan-3-yl)-acetonitrile] | < 500 |
| CS(=O)(=O)NCCc1nc2cnc3[nH]ccc3c2n1[C@@H]1CCCOC1 [Example 862, (R)—N-{2-[1-(Tetrahydro-pyran-3-yl)-1,6-dihydro-1,3,5,6-tetraaza-as-indacen-2-yl]-ethyl}-methanesulfonamide] | < 500 |
| O=C(NCCc1nc2cnc3[nH]ccc3c2n1[C@@H]1CCCOC1)C1CC1 [Example 863, (R)-Cyclopropanecarboxylic acid {2-[1-(tetrahydro-pyran-3-yl)-1,6-dihydro-1,3,5,6-tetraaza-as-indacen-2-yl]-ethyl}-amide] | < 500 |
| OCCc1nc2cnc3[nH]ccc3c2n1[C@@H]1CCCOC1 [Example 864, (R)-2-[1-(Tetrahydro-pyran-3-yl)-1,6-dihydro-1,3,5,6-tetraaza-as-indacen-2-yl]-ethanol] | < 500 |
